Measurements published in article PMC6445171 (Journal of Enzyme Inhibition and Medicinal Chemistry, 2017).
“Also recorded” adds a separate entry of the source.

Tests used:
[1] = physchem; details: n-octanol/PBS, pH 7.4
[2] = test system: human neuroblastoma cell line (SY5Y); assay: Cytotoxicity, colorimetric MTT assay; type: cell-based; details: at 100 μM, SY5Y neuroblastoma cells
[3] = PBS pH 7.4, after 24 h stirring, room temperature

logD at 60 min [1]: 2.33
Solubility PBS, pH 7.4 [3]: 184 μm
SMILES: Cl.O=C(CN1CCCCC1)Nc1ccc2oc(-c3ccco3)nc2c1 [Compound F1, N-[2-(Furan-2-yl)-1,3-benzoxazol-5-yl]-2-(piperidin-1-yl)acetamide hydrochloride]
Cytotoxicity in words [2]: without cytotoxicity; also recorded: without being cytotoxic
